## Primary screen of a compound library

Source: ChEMBL document CHEMBL3988442, “University of Dundee, Small-Polar-MMV Screening Library” (2021).

Each number is a percent effect as filed. The controls that fix the scale are not given in the record; negative values are as filed. Compounds were drawn at random from those tested, without regard to their results. Two or more numbers in one place are separate tests of the same structure; such repeats can differ widely.

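Viability assay of Plasmodium falciparum sporozoites; the read-out is not stated. The concentration is filed as 10 mM, unlikely as a test dose, so the dose is not known. Direction is inferred from retests: higher values go with lower viability. Strong results were mostly tested again. Size under these conditions: about 34,000 compounds, about 280 of them at 50% or above in at least one test.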

CN1C(=O)COc2ccc(C(=O)Cn3cnc4ccsc4c3=O)cc21 gave 5.037%. Result for c1ccc2nc(N3CCOC(Cn4cccn4)C3)cnc2c1 (centres unmarked) was 7.131%. For COc1ccc(C[C@H]2CN(C(=O)c3cc(C)no3)CC[C@H]2OC)cc1 the result was 1.138%. For O=c1n(Cc2ccccn2)nc(C2CCNCC2)n1Cc1ccccc1 the result was 5.182%. For COc1ccc(C2CCCN2C(=O)CCNc2ncccn2)cc1 (centres unmarked) the result was 7.674%.

Cc1cc(C)c(CNC(=O)N2CCOC(c3ccccc3)C2)c(=O)[nH]1 (centres unmarked) gave 14.68%. Cc1nncn1CCNC(=O)C(C)(C)c1cccc(C(F)(F)F)c1 read 9.677%. For Cc1ccccc1C1(CNc2nnc(C)c(C)c2C#N)CCOCC1 the result was -11.18%. For N#Cc1cccnc1N1CCC(C2CCCCCN2C(=O)C2CC2)CC1 (centres unmarked) the result was 2.747%. For Cc1nc(C2CCCN(C(=O)c3ccc(OCC4CC4)cc3)C2)no1 (centres unmarked) the result was 10.51%.

With CCn1cc(CN2CCCN(C(=O)c3cc(C)no3)CC2)cn1 the screen gave 5.34%. Result for O=C(O)C(F)(F)F.[H][C@@]12COC[C@]1(CNC(=O)c1ccco1)CN(Cc1sccc1C)C2 was -0.434%. For CC(=O)N1N=C(c2cccs2)OC1C(=O)Nc1ccccc1 (centres unmarked) the result was -2.108%. O=C(CS(=O)(=O)Cc1nnnn1C1CC1)NCCc1ccccc1 gave -14.4%. Result for Cn1cc(-c2ncnc3c2CCN(CC2CCOC2)CC3)cn1.O=C(O)C(F)(F)F (centres unmarked) was -3.207%.

Result for O=C(c1ccccn1)N1CCCC(c2nccn2Cc2ccncc2)C1 (centres unmarked) was 4.132%. For COc1ccc(C2=CCN(C(=O)C3CCS(=O)(=O)C3)CC2)cc1 (centres unmarked) the result was 4.385%. For Cc1noc(-c2cccnc2N(C)Cc2cc(C)on2)n1 the result was -14.57%. Cc1cnn(CC(=O)N2CCCN(Cc3cnn(C(C)C)c3)CC2)c1 gave 4.238%. Result for COc1cc(CCC(=O)NC(C)C)ccc1OCC(F)(F)F was -0.9874%.

COCc1ccccc1C(=O)N1CCCC1Cn1nc(C)cc1C (centres unmarked) gave -9.741%. Result for Cc1ccsc1C(=O)N1CCN(Cc2cscn2)CC1 was 9.558%. For CN(Cc1cccnc1)C(=O)NC1CCN(Cc2ccccn2)CC1 the result was 3.272%. [H][C@]12CN(c3nc(C)cc(C)n3)CC[C@@]1(O)CCN(S(=O)(=O)N(C)C)C2 gave -26.25% and -21.54%. With [H][C@@]12COC[C@]1(CNS(C)(=O)=O)CN(C(=O)C1CC=CC1)C2 the screen gave 1.702%.

Cc1cc(C)nc(C2CCN(C(=O)c3c(C)noc3C)C2)n1 (centres unmarked) read -0.593%. Cc1cc(CN2CCN(C(=O)NCc3ccc(C)s3)CC2)no1 read 1.562%. Cc1nn(CCO)c(C)c1CNC1CCC(C)(C)c2ccccc21 (centres unmarked) gave -13.52%. With CCn1ccnc1CN1CCN(CC(O)c2ccco2)CC1 (centres unmarked) the screen gave 6.856%. Result for Cc1cnc(N(C)Cc2cnc3ccccc3n2)nc1N(C)C was 42.78% and 58%.

With O=C(NCc1cccnc1)c1nc2c(s1)CCCN2C(=O)C1CC1.O=C(O)C(F)(F)F the screen gave 9.632%. With CC(C)CNC(=O)Nc1ccc(CN2CCOC2=O)cc1 the screen gave 0.4479%. Result for COc1ccc(OC)c(Sc2ncccc2C(=O)N(C)CCC#N)c1 was 7.058%. c1cc(CNCc2cccc3c2OCCO3)cc(Cn2cncn2)c1 gave -5.22%. With [H][C@@]12CC(C)=CC[C@]1([H])CN(C(=O)c1ccc(-c3nnn(C)n3)cc1)C2 the screen gave -14.31%.

O=C(O)C(F)(F)F.O=C(O)C(F)(F)F.[H][C@@]12COC[C@]1(CNC(=O)c1ccno1)CN(Cc1ccncc1)C2 gave -3.559%. CO[C@H]1CCN(C(=O)Cc2ccc(F)cc2)[C@H]1Cc1ccncc1 read 3.51%. CCOc1ccc(CNCc2ccc(C(=O)NC)cc2)cc1OCC gave 0%. O=C(NCCCNc1ccc(C(F)(F)F)cn1)c1ccc(F)cc1Br read -1.327%. CC(C)(C)c1noc(CCC(=O)NCC2CCS(=O)(=O)C2)n1 (centres unmarked) gave 5.772%.